Experimental data taken from PMC10907691.
Results are given in words; binding and its absence hold for the method and conditions named. Binding seen in cells or lysates may run through a third protein. Some entries that bind do so weakly or less than the wild type.

The chains behind the UniProt entries cited, without tags or fusion partners.
UniProt Q04206: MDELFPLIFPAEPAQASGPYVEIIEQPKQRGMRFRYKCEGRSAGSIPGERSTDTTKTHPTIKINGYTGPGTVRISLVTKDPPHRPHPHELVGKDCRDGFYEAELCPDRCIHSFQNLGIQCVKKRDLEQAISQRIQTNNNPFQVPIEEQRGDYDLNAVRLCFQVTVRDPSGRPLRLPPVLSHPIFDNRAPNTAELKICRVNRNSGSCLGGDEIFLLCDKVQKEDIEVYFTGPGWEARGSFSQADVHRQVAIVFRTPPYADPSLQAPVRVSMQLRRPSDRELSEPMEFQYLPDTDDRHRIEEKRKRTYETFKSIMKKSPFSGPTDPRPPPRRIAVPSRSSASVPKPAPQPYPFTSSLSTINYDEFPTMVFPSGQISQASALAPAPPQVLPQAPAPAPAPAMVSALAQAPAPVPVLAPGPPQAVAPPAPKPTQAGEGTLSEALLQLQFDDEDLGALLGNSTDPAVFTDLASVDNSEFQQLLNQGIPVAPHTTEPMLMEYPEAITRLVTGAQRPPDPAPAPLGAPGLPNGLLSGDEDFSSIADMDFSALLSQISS
UniProt P05412: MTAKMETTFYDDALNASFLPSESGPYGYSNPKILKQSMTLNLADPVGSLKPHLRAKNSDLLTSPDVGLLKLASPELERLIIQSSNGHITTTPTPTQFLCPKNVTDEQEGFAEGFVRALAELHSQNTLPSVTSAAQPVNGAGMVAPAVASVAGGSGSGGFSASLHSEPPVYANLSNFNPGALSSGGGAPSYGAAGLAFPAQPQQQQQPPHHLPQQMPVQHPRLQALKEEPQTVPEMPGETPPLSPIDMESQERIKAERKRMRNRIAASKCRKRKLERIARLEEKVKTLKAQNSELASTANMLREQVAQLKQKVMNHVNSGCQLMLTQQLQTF

Molecular target: T1, Gasdermin E full-length (human (endogenous in HaCaT)) (UniProt O60443)
T1 sequence: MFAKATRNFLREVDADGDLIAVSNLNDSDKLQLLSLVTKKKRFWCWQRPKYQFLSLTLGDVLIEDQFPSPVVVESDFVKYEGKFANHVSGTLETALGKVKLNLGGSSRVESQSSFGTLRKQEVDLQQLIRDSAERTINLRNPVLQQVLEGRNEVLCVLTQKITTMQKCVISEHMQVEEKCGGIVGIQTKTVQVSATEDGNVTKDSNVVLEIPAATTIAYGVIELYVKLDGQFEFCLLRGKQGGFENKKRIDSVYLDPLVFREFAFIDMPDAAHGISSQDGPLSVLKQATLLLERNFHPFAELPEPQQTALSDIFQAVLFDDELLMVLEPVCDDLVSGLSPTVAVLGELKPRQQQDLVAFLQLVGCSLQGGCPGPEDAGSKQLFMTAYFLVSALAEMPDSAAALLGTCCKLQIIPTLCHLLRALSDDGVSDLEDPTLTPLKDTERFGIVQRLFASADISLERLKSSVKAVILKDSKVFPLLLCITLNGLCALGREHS
Assay: co-IP; cell lysate incubated with anti-GSDME antibody (ab221843) or normal IgG at 4 °C overnight, Protein A+G agarose 1 h at room temperature, Western blot; cells with or without M5 cytokine stimulation

Row | binding | Substance
1 | binds | NF-κB p65 (from UniProt Q04206 1-551)
2 | binds | c-jun (from UniProt P05412 1-331)
